The target of this test is Flag-tagged CD16a (human) (UniProt P08637). Briefly: co-IP.

The chains behind the UniProt entries cited, without tags or fusion partners. Residues count along the entry.
UniProt P08637, residues 17-254: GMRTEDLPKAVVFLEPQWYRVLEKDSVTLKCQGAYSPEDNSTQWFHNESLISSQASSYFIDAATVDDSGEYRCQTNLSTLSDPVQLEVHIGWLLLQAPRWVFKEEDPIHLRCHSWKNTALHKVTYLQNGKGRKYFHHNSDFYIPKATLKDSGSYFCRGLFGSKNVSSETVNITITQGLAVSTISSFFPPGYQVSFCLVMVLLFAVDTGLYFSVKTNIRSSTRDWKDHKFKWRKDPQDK
UniProt P0DTC8, residues 16-121: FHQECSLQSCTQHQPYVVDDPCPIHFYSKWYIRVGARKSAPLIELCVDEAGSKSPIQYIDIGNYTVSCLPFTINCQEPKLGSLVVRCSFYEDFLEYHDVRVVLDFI

No constants are given. Whether binding was seen depends on the method and setting. In cells and extracts the contact can be indirect. Some binding calls cover weakened binding; strength is not graded here.

In the case of “StrepII-tagged ORF8 (from UniProt P0DTC8 16-121)”, the binding result is listed as “binds”.

The record behind these values is paper PMC9230529.
